Experimental data published in patent publication EP2832371B1, “APPLICATION OF GASTRODIN AS SOLUBILIZER AND METHOD FOR PREPARING INJECTION OR POWDER FOR INJECTION” (KPC Pharmaceuticals, Inc., priority 2012, dated 2013).
At least one compound was matched to its structure with a doubt left.

Experiment: Dissolution of the compound together with gastrodin in the preparation tank
Type: physicochemical
Conditions: amounts per formula of the example; with gastrodin in water for injection kept at 80 °C, vacuum, nitrogen gas
Description: heating water for injection to 80-98 °C, followed by stirring under vacuum conditions at 30-80 °C, and then adding the reactant under the protection of nitrogen gas or argon gas to obtain a solution of the reactant.
60% of the total amount of water for injection for preparation was added into a preparation tank, heated to 95 °C with slight boiling, and kept at 80 °C. The vacuum was initiated while stirring for 10 minutes, followed by bringing breviscapine along with gastrodin and sodium carbonate weighed according to the amounts in the formula by nitrogen gas into the preparation tank. […] Next, it is sterile-filtered, sterile-filled and freeze-dried by a conventional process to obtain the freeze-dried powder for injection.

Oc1cc(O)cc(/C=C/c2ccc(O)c(O)c2)c1 [Piceatannol]
time in which the compound dissolved in the preparation tank: about 5 minutes
